No end group written: not given here.
Assay: general procedure: solution-phase peptide synthesis; DCC/HONSu
Conditions: acetate

Substance | final HPLC purity (coupling step) [%] | step yield (coupling step) [%] | final HPLC purity (late stage modification step) [%] | step yield (late stage modification step) [%]
DSDPR-OEt | 97.1 | 84 |  | 
H-Asp-Ser-Asp-Pro-Arg-OH |  |  | 98.5 | 80.1
Ser-Asp-Pro-Arg-OEt, 2xCH3 COOH | 96.9 | 80 |  | 

— patent US5252464 (dated 1993)
